Data as given in PubChem BioAssay AID720505 (Drosophila RNAi Screening Center, 2013)
Purpose: 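Knock-downs that reduce calcium influx once internal stores are emptied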 (primary screen). Cells: Drosophila S2R+ cells. Reagent: long dsRNA against Drosophila genes. Conditions: thapsigargin (2 µM) in calcium-free buffer to empty internal stores, then 2 mM calcium added back. Measured: 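Fluo-4 signal in 384-well plates read on a FLIPR after thapsigargin (2 µM, calcium-free) store depletion and 2 mM calcium add-back; unnormalised mean endpoint per well; screen run twice, selected wells retested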. Reading the numbers: calcium signal and retest calcium signal: higher = more calcium entry after store depletion. Rule for the call: 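Knock-downs counted as hits when calcium entry dropped relative to STIM1 positive and Rho1 negative controls present on each plate; roughly 1500 genes called, with reductions of differing size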. Calls: active = called as lowering calcium entry; inactive = not called.
The screen tested about 20,000 reagents; below is an unselected part of those that have a named target and a result. In the full data, about 2,100 (10%) are marked active. 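Raw plate signals without normalisation; calls rest on control-based scores that were not deposited; replicate 2 separates called from uncalled poorly.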 Names joined by + are all predicted targets of the reagent. Not given: the amount of reagent, the time to read-out.

target gene	DRSC id	calcium signal, replicate 1	calcium signal, replicate 2	retest calcium signal, replicate 1	retest calcium signal, replicate 2	call
CG8236	DRSC16399	90	120			inactive
CG30495	DRSC06703	174	131			inactive
eloF	DRSC15162	144	96.7			inactive
CG12147	DRSC12192	136	139			inactive
CG12398	DRSC19454	79.5	115			inactive
Gale	DRSC08234	51.4	106			active
CG7264	DRSC10793	62.1	78.6			active
CG5835	DRSC15886	189	123			inactive
Ir94d	DRSC21568	118	73.7			inactive
ppan	DRSC17030	125	178			inactive
pds5	DRSC06670	171	135			inactive
IntS14	DRSC00668	129	181			inactive
nes	DRSC11375	97.4	161			inactive
Vang	DRSC07570	116	193			inactive
Aven	DRSC19693	75.1	102			inactive
Tis11	DRSC20293	158	94.1			inactive
Tis11	DRSC23110	160	170			inactive
snama	DRSC04049	181	93.2			inactive
Klf15	DRSC17742	272	136			inactive
CG12134	DRSC06109	81.3	108			inactive
CG33307	DRSC01349	219	94.5			inactive
cysu	DRSC15902	119	148			inactive
CG11122	DRSC19382	99.2	77.2			inactive
CG13872	DRSC06431	165	168			inactive
Nep5	DRSC16004	137	181			inactive
Cpr62Ba	DRSC08403	92.2	119			inactive
CG14227	DRSC19584	150	136			inactive
CG33137	DRSC22131	114	126			inactive
Saf6	DRSC00633	110	217			inactive
CR16735	DRSC15144	120	139			inactive
cerv	DRSC19681	70.2	131			active
CG5849	DRSC15893	161	113			inactive
CG12769	DRSC06167	165	115			inactive
COX7C	DRSC06831	168	132	85.8	123	inactive
CG14024	DRSC00868	88.7	149			inactive
CG14024	DRSC02354	138	154			inactive
Ir67c	DRSC22097	88.7	226			inactive

Part of the list above, limited to “calcium signal, replicate 1”:
snama [DRSC04049] = 181
Klf15 [DRSC17742] = 272
CG12134 [DRSC06109] = 81.3
CG33307 [DRSC01349] = 219
cysu [DRSC15902] = 119
CG11122 [DRSC19382] = 99.2
CG13872 [DRSC06431] = 165
Nep5 [DRSC16004] = 137
Cpr62Ba [DRSC08403] = 92.2
CG14227 [DRSC19584] = 150
CG33137 [DRSC22131] = 114

Additional reagents:
target gene	DRSC id	calcium signal, replicate 1	calcium signal, replicate 2	retest calcium signal, replicate 1	retest calcium signal, replicate 2	call
e	DRSC16936	175	269			inactive
Cyp4g1	DRSC18459	122	162			inactive
Ntf-2r	DRSC02019	103	116			inactive
TkR86C	DRSC16880	130	95.3			inactive
CG17163	DRSC20901	71.8	155			active
CG33557	DRSC17854	96.6	83.6			inactive
CG15625	DRSC00460	153	73.4			inactive
CG5214	DRSC15739	115	118	6551	126	inactive
CG5214	DRSC22842	101	100			inactive
fusl	DRSC02351	146	177			inactive
parvin	DRSC19468	51.8	93.2			active
Charon	DRSC00679	138	298			inactive
CG14817	DRSC18547	108	156			inactive
Gasz	DRSC06829	181	95.9			inactive
Nrx-1	DRSC16184	143	235			inactive
Alg2	DRSC08298	75.2	132			inactive
Nup214	DRSC04421	165	100			inactive
Agpat2	DRSC03532	104	237			inactive
MagR	DRSC20092	92.3	121			inactive
sm	DRSC05795	59.4	135			active
sm	DRSC07686	136	136			inactive
CG31058 (retired record)	DRSC15840	153	158			inactive
CG31058 (retired record)	DRSC22987	87.6	126			inactive
ergic53	DRSC11389	108	62.6			inactive
CG12768	DRSC11680	125	187			inactive
CG12768	DRSC23215	96.3	152			inactive
ebd2	DRSC11682	102	169			inactive
CG8401	DRSC07165	194	171			inactive
Cpr49Ae	DRSC07201	169	146			inactive
CG11566 (retired record) + stg1	DRSC20473	178	83.5			inactive
CG11566 (retired record) + stg1	DRSC20481	153	96.7			inactive
CG11566 (retired record) + stg1	DRSC20482	68.2	151			active
CG11566 (retired record) + stg1	DRSC20483	144	85.1			inactive
CG3739	DRSC15510	238	174			inactive
Or33a	DRSC03386	73.2	103			active
CR43359	DRSC03744	63.7	7461			active
FIG4	DRSC00515	88.4	117			inactive
Obp58c	DRSC04166	195	214			inactive
CG34273	DRSC13041					inactive
PsGEF	DRSC18596	69.5	91.2			inactive
PsGEF	DRSC18600	71.7	107			inactive
PsGEF	DRSC18601	62.9	104			active
Pisd	DRSC15935	139	263			inactive
CG14563	DRSC11724	124	176			inactive
hid	DRSC11316	93.5	210			inactive
CG14232	DRSC19588	140	126			inactive
Osi16	DRSC12135	103	85.9			inactive
Osi16	DRSC21323	107	101			inactive
CG5391	DRSC15790	189	161			inactive
CG33096	DRSC14440	240	213			inactive
krz	DRSC16979	91.8	112			active
nub	DRSC01260	144	81			inactive
nub	DRSC02498	122	137			inactive
nub	DRSC02499	114	103			inactive
nub	DRSC03583	89.4	99.3			inactive
nub	DRSC23066	47.5	67.8			active
S-Lap4	DRSC10957	94.5	115			inactive
HemK1	DRSC03253	146	203			inactive
aPKC	DRSC05515	70.9	126			inactive
aPKC	DRSC07639	99.6	155			inactive
Naa40	DRSC16265	172	175			inactive
comt	DRSC20319	66.2	78.7			active
CG13045	DRSC09926	115	174			inactive
CG3909	DRSC14150	70.8	83.9			active
trol	DRSC17718					inactive
trol	DRSC18613	66.4	132			active
trol	DRSC18814	70.8	134			inactive
Pgant7	DRSC19991	155	120			inactive
CG32246	DRSC08115					active
